The source of these data is article PMC8575914.

By UniProt entry, the sequences of proteins in these tests, tags left out.
UniProt P23804: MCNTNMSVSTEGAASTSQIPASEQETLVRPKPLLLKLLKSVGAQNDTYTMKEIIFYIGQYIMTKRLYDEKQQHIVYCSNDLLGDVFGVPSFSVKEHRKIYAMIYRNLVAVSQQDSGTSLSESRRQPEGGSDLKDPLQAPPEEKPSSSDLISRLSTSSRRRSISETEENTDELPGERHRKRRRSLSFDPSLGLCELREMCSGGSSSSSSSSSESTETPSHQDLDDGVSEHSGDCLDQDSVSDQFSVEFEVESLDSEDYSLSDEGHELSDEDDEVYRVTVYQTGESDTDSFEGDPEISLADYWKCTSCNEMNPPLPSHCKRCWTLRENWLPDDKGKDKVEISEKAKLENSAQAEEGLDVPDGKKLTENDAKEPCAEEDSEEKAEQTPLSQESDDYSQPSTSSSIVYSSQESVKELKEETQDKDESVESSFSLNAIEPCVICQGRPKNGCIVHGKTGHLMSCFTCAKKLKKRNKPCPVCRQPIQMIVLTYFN

The target of assay [1] is T1, FLAG-MORC2a (mouse) (UniProt Q69ZX6).
T1 sequence: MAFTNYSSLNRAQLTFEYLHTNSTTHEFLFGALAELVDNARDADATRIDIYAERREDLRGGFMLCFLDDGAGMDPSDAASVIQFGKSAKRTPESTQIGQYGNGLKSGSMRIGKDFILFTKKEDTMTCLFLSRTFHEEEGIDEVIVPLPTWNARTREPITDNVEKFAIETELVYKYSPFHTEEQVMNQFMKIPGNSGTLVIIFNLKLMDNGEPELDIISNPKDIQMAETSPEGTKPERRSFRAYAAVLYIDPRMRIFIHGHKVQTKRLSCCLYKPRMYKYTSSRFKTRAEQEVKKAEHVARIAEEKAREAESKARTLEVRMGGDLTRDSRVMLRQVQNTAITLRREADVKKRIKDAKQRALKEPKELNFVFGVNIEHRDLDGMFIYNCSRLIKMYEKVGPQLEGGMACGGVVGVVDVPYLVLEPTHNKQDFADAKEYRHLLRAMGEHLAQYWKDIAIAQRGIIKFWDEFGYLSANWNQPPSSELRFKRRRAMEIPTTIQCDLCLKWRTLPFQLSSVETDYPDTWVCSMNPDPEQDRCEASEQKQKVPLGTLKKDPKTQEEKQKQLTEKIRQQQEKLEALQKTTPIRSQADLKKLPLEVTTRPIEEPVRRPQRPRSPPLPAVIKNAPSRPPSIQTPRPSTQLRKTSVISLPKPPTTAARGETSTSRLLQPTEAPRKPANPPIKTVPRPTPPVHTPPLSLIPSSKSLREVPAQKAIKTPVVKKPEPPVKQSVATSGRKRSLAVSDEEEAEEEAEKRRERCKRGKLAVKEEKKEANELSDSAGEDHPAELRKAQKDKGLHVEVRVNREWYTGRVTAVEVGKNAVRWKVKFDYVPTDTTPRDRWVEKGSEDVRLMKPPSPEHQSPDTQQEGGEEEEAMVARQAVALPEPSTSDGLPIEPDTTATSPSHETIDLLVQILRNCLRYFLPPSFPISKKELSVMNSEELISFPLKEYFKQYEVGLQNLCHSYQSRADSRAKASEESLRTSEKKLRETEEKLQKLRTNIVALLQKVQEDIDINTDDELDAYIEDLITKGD
Briefly: co-IP; anti-FLAG affinity gel, 6 h, on precleared lysates of cells ectopically expressing the tagged proteins; rinsed four times in lysis buffer (50 mM HEPES pH 8.0, 150 mM NaCl, 0.5% Triton-X 100); western blot. (In general: In western blotting, separated proteins are transferred to a membrane and probed.)

Assay [2] has as its target T2, FLAG-MORC2b (mouse) (UniProt Q8C5W4).
T2 sequence: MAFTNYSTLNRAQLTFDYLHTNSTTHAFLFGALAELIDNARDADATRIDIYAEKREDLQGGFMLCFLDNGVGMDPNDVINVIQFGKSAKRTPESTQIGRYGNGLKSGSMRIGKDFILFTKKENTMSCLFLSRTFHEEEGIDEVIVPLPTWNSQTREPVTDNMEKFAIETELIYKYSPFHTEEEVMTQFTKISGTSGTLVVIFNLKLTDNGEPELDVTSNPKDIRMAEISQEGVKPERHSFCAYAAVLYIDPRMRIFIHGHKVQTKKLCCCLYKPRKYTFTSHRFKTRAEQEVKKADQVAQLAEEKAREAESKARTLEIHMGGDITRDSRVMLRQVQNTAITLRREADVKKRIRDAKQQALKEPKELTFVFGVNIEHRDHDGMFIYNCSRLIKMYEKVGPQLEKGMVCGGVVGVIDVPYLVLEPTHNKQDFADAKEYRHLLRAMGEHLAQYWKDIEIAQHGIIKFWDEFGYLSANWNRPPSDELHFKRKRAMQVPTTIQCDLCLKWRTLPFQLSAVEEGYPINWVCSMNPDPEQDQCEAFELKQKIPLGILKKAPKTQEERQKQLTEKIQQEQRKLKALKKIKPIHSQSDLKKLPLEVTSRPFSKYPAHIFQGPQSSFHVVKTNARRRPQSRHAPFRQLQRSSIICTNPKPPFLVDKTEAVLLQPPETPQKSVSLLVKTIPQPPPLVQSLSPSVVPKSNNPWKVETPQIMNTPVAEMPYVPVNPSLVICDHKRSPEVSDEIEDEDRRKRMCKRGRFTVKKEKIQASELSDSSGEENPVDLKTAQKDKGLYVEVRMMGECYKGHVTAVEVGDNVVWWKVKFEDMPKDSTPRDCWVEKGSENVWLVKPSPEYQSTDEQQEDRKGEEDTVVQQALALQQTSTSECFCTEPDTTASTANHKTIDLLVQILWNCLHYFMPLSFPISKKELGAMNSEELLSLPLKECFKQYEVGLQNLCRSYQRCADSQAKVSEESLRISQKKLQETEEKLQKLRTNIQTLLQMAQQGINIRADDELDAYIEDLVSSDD
The assay is described as above.

No constants are given. Whether binding was seen depends on the method and setting. In cells and extracts the contact can be indirect. Some binding calls cover weakened binding; strength is not graded here. Where a sequence is shown, tags or fusion partners need not be part of it.

For MYC-MDM2 (from UniProt P23804 1-489), the binding result in assay [1] and in assay [2] was “binds” each time.
